From paper PMC3287035
Where two headings read alike, the source gives them in different places. No constants are given. Whether binding was seen depends on the method and setting. Binding can be weak; no strength is given. For part of these data: In cells and extracts the contact can be indirect.

Protein sequences, listed by entry. Tags and fused reporters are not part of them. Residues count along the entry.
UniProt Q03591, residues 19-330: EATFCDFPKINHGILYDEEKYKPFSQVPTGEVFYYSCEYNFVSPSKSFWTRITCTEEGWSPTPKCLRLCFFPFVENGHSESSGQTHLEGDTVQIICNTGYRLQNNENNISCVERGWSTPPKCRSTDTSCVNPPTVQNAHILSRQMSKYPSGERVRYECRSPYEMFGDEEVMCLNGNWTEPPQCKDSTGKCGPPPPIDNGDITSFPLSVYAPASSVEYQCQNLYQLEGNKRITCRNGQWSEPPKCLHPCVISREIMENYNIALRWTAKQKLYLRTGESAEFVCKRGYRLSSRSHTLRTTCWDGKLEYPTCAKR
UniProt P36980, residues 19-270: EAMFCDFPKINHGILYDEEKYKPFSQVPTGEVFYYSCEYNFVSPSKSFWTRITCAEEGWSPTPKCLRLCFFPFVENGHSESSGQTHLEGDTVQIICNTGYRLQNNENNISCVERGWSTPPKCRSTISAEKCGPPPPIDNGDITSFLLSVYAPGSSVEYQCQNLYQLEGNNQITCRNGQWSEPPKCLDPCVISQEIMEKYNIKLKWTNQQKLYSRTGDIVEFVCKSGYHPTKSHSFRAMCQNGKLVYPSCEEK

Tests used:
[1] = target: CRASP-4 (ErpC) ectopically produced in B. garinii G1/pCRASP-4 (B. burgdorferi (strain LW2, erpC identical to type strain B31)) (UniProt Q44790); test: serum adsorption assay on live bacteria; 1 × 10^9 borrelial cells in 750 μL NHS with 34 mM EDTA for 1 h, washed with PBS 0.01% Tween 20, bound proteins eluted with 100 mM glycine-HCl pH 2.0; Western blot with polyclonal anti-CFHR1 antiserum
[2] = target: recombinant amino-terminally polyhistidine-tagged CRASP-4 (ErpC) of B. burgdorferi (B. burgdorferi (strain LW2, erpC identical to type strain B31)) (UniProt Q44790); test: pull-down; purified His-tagged CRASP-4 (20 μg) on Dynabeads TALON magnetic beads, incubated with NHS 1 h on ice, washed with 50 mM phosphate, 300 mM NaCl, 0.01% Tween 20, eluted with 100 mM glycine-HCl pH 2.0; silver stain and Western blot, nonreducing SDS-PAGE; only the target purified
[3] = target: recombinant amino-terminally polyhistidine-tagged CRASP-4 (ErpC) of B. burgdorferi (B. burgdorferi (strain LW2, erpC identical to type strain B31)) (UniProt Q44790); test: ELISA; CRASP-4 (5 μg/mL) coated on microtiter plates; equimolar amounts (33 μM) of CFH, CFHR1, CFHR2 or CFHR5 added for 1 h at RT; detection with goat CFH antiserum or MAb JHD 7.10; both purified
[4] = target: CRASP-4 (ErpC) ectopically produced in B. garinii G1/pCRASP-4 (B. burgdorferi (strain LW2, erpC identical to type strain B31)) (UniProt Q44790); test: serum adsorption assay on live bacteria; 1 × 10^9 borrelial cells in 750 μL NHS with 34 mM EDTA for 1 h, washed with PBS 0.01% Tween 20, bound proteins eluted with 100 mM glycine-HCl pH 2.0; Western blot with polyclonal anti-CFHR1 antiserum; remark: listed apart in the source

Row | Molecule | binding [1] | binding [2] | binding [3] | binding [4]
1 | CFH-related protein 1 (CFHR1) of normal human serum (from UniProt Q03591 19-330) | binds | binds | – | –
2 | CFH-related protein 2 (CFHR2) of normal human serum (from UniProt P36980 19-270) | binds | binds | – | –
3 | recombinant CFHR1 (from UniProt Q03591 19-330) | – | – | binds | –
4 | recombinant CFHR2 (from UniProt P36980 19-270) | – | – | binds | –
5 | CFH-related protein 5 (CFHR5) of normal human serum (protein, UniProt Q9BXR6 19-569) EGTLCDFPKIHHGFLYDEEDYNPFSQVPTGEVFYYSCEYNFVSPSKSFWTRITCTEEGWSPTPKCLRMCSFPFVKNGHSESSGLIHLEGDTVQIICNTGYSLQNNEKNISCVERGWSTPPICSFTKGECHVPILEANVDAQPKKESYKVGDVLKFSCRKNLIRVGSDSVQCYQFGWSPNFPTCKGQVRSCGPPPQLSNGEVKEIRKEEYGHNEVVEYDCNPNFIINGPKKIQCVDGEWTTLPTCVEQVKTCGYIPELEYGYVQPSVPPYQHGVSVEVNCRNEYAMIGNNMITCINGIWTELPMCVATHQLKRCKIAGVNIKTLLKLSGKEFNHNSRIRYRCSDIFRYRHSVCINGKWNPEVDCTEKREQFCPPPPQIPNAQNMTTTVNYQDGEKVAVLCKENYLLPEAKEIVCKDGRWQSLPRCVESTAYCGPPPSINNGDTTSFPLSVYPPGSTVTYRCQSFYKLQGSVTVTCRNKQWSEPPRCLDPCVVSEENMNKNNIQLKWRNDGKLYAKTGDAVEFQCKFPHKAMISSPPFRAICQEGKFEYPICE | – | binds | – | binds weakly
6 | recombinant CFHR5 (protein, UniProt Q9BXR6 19-569) EGTLCDFPKIHHGFLYDEEDYNPFSQVPTGEVFYYSCEYNFVSPSKSFWTRITCTEEGWSPTPKCLRMCSFPFVKNGHSESSGLIHLEGDTVQIICNTGYSLQNNEKNISCVERGWSTPPICSFTKGECHVPILEANVDAQPKKESYKVGDVLKFSCRKNLIRVGSDSVQCYQFGWSPNFPTCKGQVRSCGPPPQLSNGEVKEIRKEEYGHNEVVEYDCNPNFIINGPKKIQCVDGEWTTLPTCVEQVKTCGYIPELEYGYVQPSVPPYQHGVSVEVNCRNEYAMIGNNMITCINGIWTELPMCVATHQLKRCKIAGVNIKTLLKLSGKEFNHNSRIRYRCSDIFRYRHSVCINGKWNPEVDCTEKREQFCPPPPQIPNAQNMTTTVNYQDGEKVAVLCKENYLLPEAKEIVCKDGRWQSLPRCVESTAYCGPPPSINNGDTTSFPLSVYPPGSTVTYRCQSFYKLQGSVTVTCRNKQWSEPPRCLDPCVVSEENMNKNNIQLKWRNDGKLYAKTGDAVEFQCKFPHKAMISSPPFRAICQEGKFEYPICE | – | – | binds | –
